Experimental data reported in patent US20120035098A1.
Results are given in words; binding and its absence hold for the method and conditions named. For some assays here: In cells and extracts the contact can be indirect. Some binding calls cover weakened binding; strength is not graded here.

By UniProt entry, the sequences of proteins in these tests, tags left out. Residues count along the entry.
UniProt P27169, residues 2-355: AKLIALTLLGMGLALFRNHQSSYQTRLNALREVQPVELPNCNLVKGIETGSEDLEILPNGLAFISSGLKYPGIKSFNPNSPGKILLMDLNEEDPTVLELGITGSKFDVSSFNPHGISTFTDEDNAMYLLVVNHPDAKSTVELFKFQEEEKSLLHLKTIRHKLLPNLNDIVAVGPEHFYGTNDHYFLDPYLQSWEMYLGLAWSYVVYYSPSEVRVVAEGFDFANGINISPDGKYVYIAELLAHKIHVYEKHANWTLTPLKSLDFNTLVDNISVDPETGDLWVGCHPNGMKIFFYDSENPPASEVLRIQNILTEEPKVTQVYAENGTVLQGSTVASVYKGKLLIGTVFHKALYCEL
UniProt P17676: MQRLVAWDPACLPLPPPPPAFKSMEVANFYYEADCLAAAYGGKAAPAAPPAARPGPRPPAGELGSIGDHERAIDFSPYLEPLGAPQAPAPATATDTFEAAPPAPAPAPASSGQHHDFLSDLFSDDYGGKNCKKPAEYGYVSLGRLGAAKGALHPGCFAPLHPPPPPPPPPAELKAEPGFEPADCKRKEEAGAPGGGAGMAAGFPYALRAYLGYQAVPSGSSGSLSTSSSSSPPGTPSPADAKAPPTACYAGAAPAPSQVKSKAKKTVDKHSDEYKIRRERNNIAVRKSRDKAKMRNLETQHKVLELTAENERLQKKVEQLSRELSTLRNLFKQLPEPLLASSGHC

How the values were obtained:
[1] = biological target: human paraoxonase PON-1 (human) (UniProt P27169); assay: co-purification of the HPBP/PON-1 complex from human plasma (Cibacron affinity gel, then DEAE anion exchange)
[2] = biological target: transcription factor C/EBPβ (UniProt P17676); assay: ELISA: C/EBPβ adsorbed on the plate, HPBP in solution, detected with anti-HPBP antibodies

B1: Human Phosphate Binding Protein (HPBP) (protein)
chain: DINGGGATLPQKLYLTPDVLTAGFAPYIGVGSGKGKIAFLENKYNQFGTDTTKNVHWAGSDSKLTATELATYAADKEPGWGKLIQVPSVATSVAIPFRKAGANAVDLSVKELCGVFSGRIADWSGITGAGRSGPIQVVYRAESSGTTELFTRFLNAKCTTQPGTFAVTTVFANSYSLGLSPLAGAVAAIGSVGVMAADNDVTTAQGRITYISPDFAAPTLAGLDDATKVARTGKGSSSGGGAEGKSPAAANVSAAISVVPLPAAADRGDPNVWTPVFGAVTGGGVVAYPDSGYPILGFTDLIFSECYANATQTGQVRNFFTKHYGTSANDNAAIQANAFVPLPSNWKAAVRASYLTASNALSIGDSAVCGGKGRPE
[1]
  binding: binds
[2]
  binding: binds
